Experiment [1] has as its target SIRT7 (human (endogenous in HaCaT)) (UniProt Q9NRC8). Briefly: co-IP; Pierce crosslinking magnetic IP/Co-IP kit; antibody or control IgG cross-linked to protein A/G magnetic beads; keratinocyte lysate, 1 h at room temperature; Western blot; cells with or without IR, 1.0 uM RSV, siRNA against SIRT7.
For experiment [2], the target named is High-mobility group box 1 (HMGB1) (human (endogenous in HaCaT)) (UniProt P09429). The experiment is described as above.

Chains of the proteins cited; added tags and fusions are not shown.
UniProt Q9NRC8: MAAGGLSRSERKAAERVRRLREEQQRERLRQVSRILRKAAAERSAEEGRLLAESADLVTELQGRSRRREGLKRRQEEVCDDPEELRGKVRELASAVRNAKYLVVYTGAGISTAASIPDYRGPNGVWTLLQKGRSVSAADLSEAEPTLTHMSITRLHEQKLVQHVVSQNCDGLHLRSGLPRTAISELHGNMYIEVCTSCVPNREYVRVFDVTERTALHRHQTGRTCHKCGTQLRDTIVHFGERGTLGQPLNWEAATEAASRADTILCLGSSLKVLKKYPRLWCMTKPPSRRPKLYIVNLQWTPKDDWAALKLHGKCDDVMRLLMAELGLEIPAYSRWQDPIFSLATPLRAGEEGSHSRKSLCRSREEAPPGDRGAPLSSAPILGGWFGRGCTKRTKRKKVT
UniProt P09429: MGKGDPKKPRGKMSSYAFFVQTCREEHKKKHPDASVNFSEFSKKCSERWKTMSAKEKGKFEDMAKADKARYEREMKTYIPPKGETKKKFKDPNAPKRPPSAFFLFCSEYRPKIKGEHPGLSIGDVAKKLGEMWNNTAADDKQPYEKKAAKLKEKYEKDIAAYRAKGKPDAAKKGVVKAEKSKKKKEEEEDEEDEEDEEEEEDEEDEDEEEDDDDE

These are yes or no findings as the source states them, for the method shown. In cells and extracts the contact can be indirect. Some entries that bind do so weakly or less than the wild type.

In the case of “High-mobility group box 1 (HMGB1) (from UniProt P09429 1-215)”, the binding entry in experiment [1] is reported as “binds”.

Take “SIRT7 (from UniProt Q9NRC8 1-400) (enzyme)”: in experiment [2], the binding result is listed as “binds”.

Values taken from PMC9805450.
